Record: PubChem BioAssay AID1508597 (Cure First, 2020)

Aim: 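Genes whose silencing sensitises or protects ovarian cancer cells against rucaparib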 (primary screen)
System: human ovarian carcinoma lines grown from tumours: OCI-P5x (papillary serous) and OCI-C5x (clear cell)
Knock-down reagent: siRNA pool against human genes, 1.25 pmol siRNA per well
Duration: 72 h or 96 h, depending on the cell culture
Treatment: rucaparib 20 µM (about IC30) or vehicle, present until read-out
Detection: 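ATP luminescence measured at 72 or 96 h according to the culture, then normalised and expressed as percent viability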
Direction: viability, normalised: higher = more viable cells remaining
Hit rule: 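Active when normalised viability falls below 80 percent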
Meaning of the calls: active = viability under 80%; inactive = viability 80% or more
The deposit covers about 2,100 reagents; shown is an unselected part. 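Calls flag viability under 80% in either arm, not effects specific to rucaparib; the reference for percent is not stated.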 Not stated in the record: the 100% reference.

gene symbol	rucaparib or vehicle	cell line	technical replicate	viability, normalised (%)	outcome
AKT1	Rucaparib	OCI-C5x (clear cell)	1	49.2	active
AKT1	Rucaparib	OCI-C5x (clear cell)	2	48.3	active
AKT1	Rucaparib	OCI-C5x (clear cell)	3	49.7	active
AKT1	Rucaparib	OCI-P5x (serous)	1	80.6	inactive
AKT1	Rucaparib	OCI-P5x (serous)	2	88.1	inactive
AKT1	Rucaparib	OCI-P5x (serous)	3	79.3	active
AKT1	Vehicle	OCI-C5x (clear cell)	1	69.1	active
AKT1	Vehicle	OCI-C5x (clear cell)	2	66.1	active
AKT1	Vehicle	OCI-C5x (clear cell)	3	67	active
AKT1	Vehicle	OCI-P5x (serous)	1	80.4	inactive
AKT1	Vehicle	OCI-P5x (serous)	2	81.2	inactive
AKT1	Vehicle	OCI-P5x (serous)	3	93.4	inactive
KLF1	Rucaparib	OCI-C5x (clear cell)	1	76.2	active
KLF1	Rucaparib	OCI-C5x (clear cell)	2	57.1	active
KLF1	Rucaparib	OCI-C5x (clear cell)	3	53.5	active
KLF1	Rucaparib	OCI-P5x (serous)	1	61.5	active
KLF1	Rucaparib	OCI-P5x (serous)	2	72.4	active
KLF1	Rucaparib	OCI-P5x (serous)	3	79.5	active
KLF1	Vehicle	OCI-C5x (clear cell)	1	42.2	active
KLF1	Vehicle	OCI-C5x (clear cell)	2	74.2	active
KLF1	Vehicle	OCI-C5x (clear cell)	3	62.9	active
KLF1	Vehicle	OCI-P5x (serous)	1	56.6	active
KLF1	Vehicle	OCI-P5x (serous)	2	74.1	active
KLF1	Vehicle	OCI-P5x (serous)	3	110	inactive

Looked up above.
For “viability, normalised (%)”, AKT1, rucaparib or vehicle Rucaparib, cell line OCI-P5x (serous), technical replicate 3 has 79.3
Value of AKT1, rucaparib or vehicle Rucaparib, cell line OCI-C5x (clear cell), technical replicate 2 under “viability, normalised (%)”: 48.3
For “outcome”, AKT1, rucaparib or vehicle Rucaparib, cell line OCI-P5x (serous), technical replicate 2 shows inactive
AKT1, rucaparib or vehicle Rucaparib, cell line OCI-C5x (clear cell), technical replicate 3, viability, normalised (%) → 49.7
KLF1, rucaparib or vehicle Rucaparib, cell line OCI-P5x (serous), technical replicate 3, outcome → active
KLF1, rucaparib or vehicle Vehicle, cell line OCI-C5x (clear cell), technical replicate 2, outcome = active

More reagents follow.
gene symbol	rucaparib or vehicle	cell line	technical replicate	viability, normalised (%)	outcome
SUV39H2	Rucaparib	OCI-C5x (clear cell)	1	40.9	active
SUV39H2	Rucaparib	OCI-C5x (clear cell)	2	44.5	active
SUV39H2	Rucaparib	OCI-C5x (clear cell)	3	40.8	active
SUV39H2	Rucaparib	OCI-P5x (serous)	1	60.3	active
SUV39H2	Rucaparib	OCI-P5x (serous)	2	51.3	active
SUV39H2	Rucaparib	OCI-P5x (serous)	3	47.2	active
SUV39H2	Vehicle	OCI-C5x (clear cell)	1	35.1	active
SUV39H2	Vehicle	OCI-C5x (clear cell)	2	45.7	active
SUV39H2	Vehicle	OCI-C5x (clear cell)	3	42.5	active
SUV39H2	Vehicle	OCI-P5x (serous)	1	51.6	active
SUV39H2	Vehicle	OCI-P5x (serous)	2	51.2	active
SUV39H2	Vehicle	OCI-P5x (serous)	3	40.4	active
LHCGR	Rucaparib	OCI-C5x (clear cell)	1	37.5	active
LHCGR	Rucaparib	OCI-C5x (clear cell)	2	43.5	active
LHCGR	Rucaparib	OCI-C5x (clear cell)	3	49.6	active
LHCGR	Rucaparib	OCI-P5x (serous)	1	58	active
LHCGR	Rucaparib	OCI-P5x (serous)	2	54.9	active
LHCGR	Rucaparib	OCI-P5x (serous)	3	60.7	active
LHCGR	Vehicle	OCI-C5x (clear cell)	1	48.7	active
LHCGR	Vehicle	OCI-C5x (clear cell)	2	56.6	active
LHCGR	Vehicle	OCI-C5x (clear cell)	3	51.9	active
LHCGR	Vehicle	OCI-P5x (serous)	1	41.1	active
LHCGR	Vehicle	OCI-P5x (serous)	2	58.9	active
LHCGR	Vehicle	OCI-P5x (serous)	3	56.2	active
